Values from PubChem BioAssay AID1259254 (NCATS, 2017).

- Assay: 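Finding genes that stop cells copying their DNA twice in one cycle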 (primary screen)
- Cell system: human HCT116 colorectal cancer cells
- Knock-down reagent: single siRNA against human genes
- Duration: 3 days
- Read-out: 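Imaged Hoechst DNA stain sorts each cell into a cycle phase by DNA amount; per plate, G2 fraction set to 0% for non-targeting and 100% for GMNN siRNA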
- Reading the numbers: G2 robust z-score: higher = more G2 cells, more excess DNA replication
- Call rule: 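Active siRNAs have a G2 robust z of 5 or more median absolute deviations over the median, which in these data means about 38% or higher of GMNN control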
The deposit covers about 59,000 reagents; shown is a random part of them. About 1,550 of them (2.6%) were called active. 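G2 share is only a proxy for re-replication; each gene was hit by three separate siRNAs, and active genes were retested.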 Unmarked entries are inactive. Reagents against one gene are numbered here. Not all columns of the deposit are shown. Not stated in the record: the amount of reagent.

target gene	siRNA no.	G2 robust z-score
MIS18BP1	1	0.699
MIS18BP1	2	-0.0713
MIS18BP1	3	-0.262
CYP8B1	1	2.74
CYP8B1	2	-0.645
CYP8B1	3	8.58 (active)
SYNPO2	1	0.127
SYNPO2	2	-0.867
SYNPO2	3	2.22
TMEM150B	1	-1.2
TMEM150B	2	-0.147
TMEM150B	3	-0.345
EFCAB3	1	-0.5
EFCAB3	2	0.0902
EFCAB3	3	-0.451
ZBED8L	1	-0.498
ZBED8L	2	0.584
ZBED8L	3	0.357
ZFP62	1	0.989
ZFP62	2	0.178
ZFP62	3	0.329
AGK	1	-0.848
AGK	2	-0.549
AGK	3	-0.917
CACNG3	1	1.07
CACNG3	2	-0.509
CACNG3	3	-0.64
CRY2	1	1.45
CRY2	2	-0.782
CRY2	3	-0.738
M6PR	1	-1.18
M6PR	2	1.4
M6PR	3	0.258
PLTP	1	1.92
PLTP	2	3.51
PLTP	3	-0.386
S1PR1	1	-0.966
S1PR1	2	1.28
S1PR1	3	-0.0107
CORO2A	1	-0.548
CORO2A	2	-1.27
CORO2A	3	-0.604
BLTP3A	1	0.36
BLTP3A	2	-0.464
BLTP3A	3	-0.242
CNPPD1	1	-0.708
CNPPD1	2	-0.67
CNPPD1	3	-0.773

A stretch of the results above:
target gene	siRNA no.	G2 robust z-score
EFCAB3	3	-0.451
ZBED8L	1	-0.498
ZBED8L	2	0.584
ZBED8L	3	0.357
ZFP62	1	0.989
ZFP62	2	0.178
ZFP62	3	0.329
